# Experimental data: patent US20250367182A1, “METHOD FOR INDUCING IN-SITU REGENERATION OF MAMMAL AND USE THEREOF” (INSTITUTE OF ZOOLOGY, CHINESE ACADEMY OF SCIENCES, priority 2022, published 2025)
# At least one structure is not confirmed: it was looked up by name or label, or the drawing left a doubt.
# System: 2 mm diameter mouse ear hole
# Assay: 2 mm ear hole trauma mouse model (ear hole closure)
# Set-up: species or system C57BL/6 mice
# Conditions: in vivo
smiles,measurement,value
C[C@@H]1C[C@H]2[C@@H]3CCC4=CC(=O)C=C[C@]4(C)[C@@]3(F)[C@@H](O)C[C@]2(C)[C@@]1(O)C(=O)CO [Dexamethasone],CHX-induced ear hole regeneration,significantly inhibited
